# No constants are given. Whether binding was seen depends on the method and setting. Binding seen in cells or lysates may run through a third protein. For part of these data: Binding can be weak; no strength is given.
# Protein sequences, listed by entry. Tags and fused reporters are not part of them. Lines headed by an entry give the natural chain unless they say otherwise; changes in a name come on top.
# UniProt Q04002: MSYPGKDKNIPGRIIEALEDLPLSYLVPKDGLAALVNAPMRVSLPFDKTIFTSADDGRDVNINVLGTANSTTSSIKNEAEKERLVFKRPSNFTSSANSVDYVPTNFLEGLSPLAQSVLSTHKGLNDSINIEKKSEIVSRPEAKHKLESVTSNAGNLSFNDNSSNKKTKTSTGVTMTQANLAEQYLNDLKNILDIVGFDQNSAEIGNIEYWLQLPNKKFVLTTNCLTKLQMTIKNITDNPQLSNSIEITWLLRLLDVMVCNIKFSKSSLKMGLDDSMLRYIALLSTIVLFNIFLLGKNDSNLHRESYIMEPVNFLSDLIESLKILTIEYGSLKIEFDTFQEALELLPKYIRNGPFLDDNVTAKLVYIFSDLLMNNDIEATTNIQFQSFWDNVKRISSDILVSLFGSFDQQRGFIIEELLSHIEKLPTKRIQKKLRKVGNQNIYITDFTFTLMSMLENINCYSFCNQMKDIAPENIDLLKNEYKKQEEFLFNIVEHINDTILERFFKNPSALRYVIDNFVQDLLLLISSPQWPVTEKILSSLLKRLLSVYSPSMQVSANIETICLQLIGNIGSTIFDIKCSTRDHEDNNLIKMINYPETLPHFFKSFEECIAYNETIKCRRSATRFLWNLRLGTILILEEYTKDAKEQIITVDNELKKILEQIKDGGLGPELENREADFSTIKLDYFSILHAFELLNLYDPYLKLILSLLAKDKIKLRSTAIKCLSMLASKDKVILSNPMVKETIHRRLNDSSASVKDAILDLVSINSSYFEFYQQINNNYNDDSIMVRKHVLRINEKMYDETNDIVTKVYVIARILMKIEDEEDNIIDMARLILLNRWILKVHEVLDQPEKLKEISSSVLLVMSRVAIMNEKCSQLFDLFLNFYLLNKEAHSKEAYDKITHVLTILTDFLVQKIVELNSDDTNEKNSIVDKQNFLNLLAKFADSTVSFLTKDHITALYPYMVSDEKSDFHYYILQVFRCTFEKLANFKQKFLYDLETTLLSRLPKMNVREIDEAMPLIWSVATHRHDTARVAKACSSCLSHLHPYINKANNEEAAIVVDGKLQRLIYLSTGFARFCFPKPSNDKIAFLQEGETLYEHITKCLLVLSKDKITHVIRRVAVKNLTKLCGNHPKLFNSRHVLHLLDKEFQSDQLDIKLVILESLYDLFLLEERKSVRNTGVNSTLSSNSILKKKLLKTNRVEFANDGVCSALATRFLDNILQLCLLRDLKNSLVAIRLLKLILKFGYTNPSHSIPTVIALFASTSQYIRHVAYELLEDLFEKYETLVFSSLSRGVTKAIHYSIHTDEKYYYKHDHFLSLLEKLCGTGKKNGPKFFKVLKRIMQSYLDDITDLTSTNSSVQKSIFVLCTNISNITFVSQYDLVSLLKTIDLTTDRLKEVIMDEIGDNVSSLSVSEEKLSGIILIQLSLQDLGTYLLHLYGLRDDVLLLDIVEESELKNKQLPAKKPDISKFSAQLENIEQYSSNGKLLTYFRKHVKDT
# UniProt P15873: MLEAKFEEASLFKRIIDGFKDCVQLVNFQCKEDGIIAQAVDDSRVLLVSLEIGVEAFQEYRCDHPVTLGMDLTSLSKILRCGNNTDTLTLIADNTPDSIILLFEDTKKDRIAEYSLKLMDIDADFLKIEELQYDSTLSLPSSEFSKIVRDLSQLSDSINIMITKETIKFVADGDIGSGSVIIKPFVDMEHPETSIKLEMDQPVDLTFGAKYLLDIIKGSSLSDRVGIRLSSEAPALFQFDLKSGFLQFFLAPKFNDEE
# UniProt A0A8V1AEC9: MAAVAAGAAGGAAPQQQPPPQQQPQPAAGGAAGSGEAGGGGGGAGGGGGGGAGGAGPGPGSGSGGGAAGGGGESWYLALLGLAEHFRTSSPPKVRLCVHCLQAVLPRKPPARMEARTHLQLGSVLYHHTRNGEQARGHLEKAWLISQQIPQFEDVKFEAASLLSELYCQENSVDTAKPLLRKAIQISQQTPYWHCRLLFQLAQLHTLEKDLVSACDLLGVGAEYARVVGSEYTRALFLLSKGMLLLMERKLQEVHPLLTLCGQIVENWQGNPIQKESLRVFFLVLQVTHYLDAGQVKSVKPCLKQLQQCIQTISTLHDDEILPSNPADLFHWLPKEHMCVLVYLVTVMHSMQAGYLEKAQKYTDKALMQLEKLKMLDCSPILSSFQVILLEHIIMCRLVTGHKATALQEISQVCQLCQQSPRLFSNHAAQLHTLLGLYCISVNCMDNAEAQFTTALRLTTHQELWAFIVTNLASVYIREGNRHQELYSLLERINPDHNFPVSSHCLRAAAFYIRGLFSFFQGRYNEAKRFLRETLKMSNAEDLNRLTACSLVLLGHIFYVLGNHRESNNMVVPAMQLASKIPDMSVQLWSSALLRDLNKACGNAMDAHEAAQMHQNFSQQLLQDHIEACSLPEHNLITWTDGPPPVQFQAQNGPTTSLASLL
# UniProt Q9DEA3: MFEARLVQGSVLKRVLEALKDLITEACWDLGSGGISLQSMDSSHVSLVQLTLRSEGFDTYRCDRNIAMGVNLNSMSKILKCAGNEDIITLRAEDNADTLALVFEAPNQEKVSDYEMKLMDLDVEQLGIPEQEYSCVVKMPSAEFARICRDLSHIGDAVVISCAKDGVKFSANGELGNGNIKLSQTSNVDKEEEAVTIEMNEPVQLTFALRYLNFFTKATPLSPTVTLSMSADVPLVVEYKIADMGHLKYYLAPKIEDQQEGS
# Columns and labels:
# [1] = target: N-terminally 7His8Flag (HF)-tagged Scc2^E822K-pip (S. cerevisiae) (UniProt Q04002); assay: cross-linking; yeast cultures cross-linked with 1% formaldehyde for 30 min; Ni-NTA pulldown of HF-tagged Scc2^E822K under denaturing conditions; blot with anti-Pol30
# [2] = target: 3HA–NIPBL (chicken), overexpressed (chicken) (UniProt F1NJ66); assay: co-IP; IP of overexpressed 3HA–NIPBL with anti-HA magnetic beads from sonicated DT40 lysates, overnight; washes 200 mM NaCl, 0.5% NP-40
Substance,binding [1],binding [2]
"Pol30 (yeast PCNA), endogenous (from UniProt P15873 1-258)",no binding,
"chicken MAU2, endogenous (from UniProt A0A8V1AEC9 1-662)",,binds
"chicken PCNA, endogenous (from UniProt Q9DEA3 1-262)",,binds

# Source: PMC10497406, “PCNA recruits cohesin loader Scc2 to ensure sister chromatid cohesion” (Nature Structural & Molecular Biology, 2023)
